Data as given in paper PMC7804115.
These are yes or no findings as the source states them, for the method shown. In cells and extracts the contact can be indirect. Some binding calls cover weakened binding; strength is not graded here.

Molecular target: mouse Jaw1 long form (Ms LJaw1) (mouse) (UniProt Q60664)
Experiment: co-IP; FLAG Ms LJaw1 co-expressed with GFP-fused Jaw1 or mutants in HEK293 cells for 24 h; lysis in 50 mM Tris-HCl pH 7.6, 150 mM NaCl, 0.5% NP-40; anti-FLAG tag antibody beads, 4 °C, 2 h; western blot with anti-FLAG and anti-GFP antibodies

binding: binds
B1: mouse Jaw1 long form (Ms LJaw1) (protein, UniProt Q60664 1-539)
chain: MLCVKGPPEQEPEDGALDVTRGCQCPLPTEDSILGQELLDCTRMNEDQSTDENGAGHFYSESPSQLREYLTQPSSEQTSSSESTVTSSESGSDILHMASGDLDCKPLCEKEEEARAASAMQGTSLAPAAYGDYTSVGVAKAASQLEAGEELRTTENGGKGSAPGETEISMPPKASVKLVNFQQSENTSANEKEVEAEFLRLSLGLKCDWFTLEKRVKLEERSRDLAEENLKKEITNCLKLLESLTPLCEEDNQAQEIVKKLEKSIVLLSQCTARVASRAEMLGAINQESRVSRAVEVMIQHVENLKRMYAKEHAELEDLKQALLQNDRSFNSLPDEDDCQIKKRSSSLNSKPSSLRRVTIASLPRNLGNVGLVSGMENNDRFSRRSSSWRILGTKQGEHRPSLHRFISTYSWADAEDERSDVKARDAPEPQGEEAVERTRKPSLSERRSSTLAWDRGTICSSVASWVTHLQASFRRANRALWLTGLIIILIAALMSFLTGQLFQTAVEAAPTQEGDSWLSLEHILWPFTRLGHDGPPPV
